For three molecules, binding results are on record in publication PMC6057013.

Amino acid sequences for entries named in this document (tags omitted).
UniProt P35222: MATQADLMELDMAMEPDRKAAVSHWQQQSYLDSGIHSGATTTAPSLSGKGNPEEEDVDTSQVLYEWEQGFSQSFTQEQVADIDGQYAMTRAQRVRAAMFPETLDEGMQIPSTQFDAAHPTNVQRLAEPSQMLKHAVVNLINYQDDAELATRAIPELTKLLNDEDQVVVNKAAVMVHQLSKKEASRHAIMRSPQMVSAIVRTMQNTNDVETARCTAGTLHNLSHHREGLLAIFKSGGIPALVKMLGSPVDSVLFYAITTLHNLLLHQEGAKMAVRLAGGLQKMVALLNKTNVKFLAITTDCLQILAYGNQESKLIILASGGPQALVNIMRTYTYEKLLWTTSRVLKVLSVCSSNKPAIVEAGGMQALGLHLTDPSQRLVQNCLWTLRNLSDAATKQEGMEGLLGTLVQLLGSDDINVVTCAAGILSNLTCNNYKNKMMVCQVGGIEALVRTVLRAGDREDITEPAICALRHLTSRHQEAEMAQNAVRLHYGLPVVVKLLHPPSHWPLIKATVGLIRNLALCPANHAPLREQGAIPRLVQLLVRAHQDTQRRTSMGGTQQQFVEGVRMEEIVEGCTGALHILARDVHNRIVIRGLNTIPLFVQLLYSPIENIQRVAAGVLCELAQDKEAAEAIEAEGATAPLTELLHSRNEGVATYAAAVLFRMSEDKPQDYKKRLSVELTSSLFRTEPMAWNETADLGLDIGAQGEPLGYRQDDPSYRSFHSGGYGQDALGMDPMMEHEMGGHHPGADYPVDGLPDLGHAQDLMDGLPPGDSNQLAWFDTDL

Assay [1] has as its target T1, endogenous Hakai (human (endogenous in BEL7402)) (UniProt Q75N03).
T1 sequence: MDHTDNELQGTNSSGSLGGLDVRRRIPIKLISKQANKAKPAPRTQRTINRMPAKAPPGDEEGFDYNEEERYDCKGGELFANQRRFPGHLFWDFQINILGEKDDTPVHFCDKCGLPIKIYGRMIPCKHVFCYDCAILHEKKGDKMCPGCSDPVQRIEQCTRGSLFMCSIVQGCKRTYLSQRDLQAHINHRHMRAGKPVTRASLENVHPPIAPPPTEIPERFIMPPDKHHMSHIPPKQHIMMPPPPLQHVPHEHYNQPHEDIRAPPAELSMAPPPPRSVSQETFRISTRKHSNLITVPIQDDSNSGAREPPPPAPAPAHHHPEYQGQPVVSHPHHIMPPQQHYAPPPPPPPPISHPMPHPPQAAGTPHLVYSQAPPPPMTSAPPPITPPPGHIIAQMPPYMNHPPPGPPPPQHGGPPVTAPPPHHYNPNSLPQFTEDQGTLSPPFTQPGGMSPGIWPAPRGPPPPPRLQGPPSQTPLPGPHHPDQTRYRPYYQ
Put plainly: co-IP; endogenous proteins; BEL7402 cells grown in 10 cm^2 dishes, cell lysates subjected to IP.

The target in assay [2] is endogenous β-catenin (human (endogenous in BEL7402)) (UniProt P35222). Description: co-IP; BEL7402 cells transfected with wild-type Hakai or its deletion mutants; endogenous β-catenin.
A further assay concerns the target GFP-tagged β-Catenin (UniProt P35222). Description: co-IP; 293T cells transfected with tagged constructs; cell lysates immunoprecipitated with anti-Myc-tag or anti-GFP-tag antibody and immunoblotted. For orientation: In western blotting, separated proteins are transferred to a membrane and probed.

No constants are given. Whether binding was seen depends on the method and setting. In cells and extracts the contact can be indirect. Some binding calls cover weakened binding; strength is not graded here. For part of these data: Tags and fused reporters may be left off the sequences shown.

Turning to “endogenous β-catenin (from UniProt P35222 1-781)”, in assay [1], the binding entry was “binds”.

B1: wild-type Hakai (WT), transfected in BEL7402 cells (protein, UniProt Q75N03 1-491)
chain: T1 sequence
For B1, the binding result in assay [2] was “binds”.

B2: Myc-tagged Hakai (protein, UniProt Q75N03 1-491)
chain: T1 sequence
For the molecule B2, the binding entry with GFP-tagged β-Catenin is listed as “binds”.
